# Experimental data published in the supplement of paper PMC8728848.
# This is one part of the list.
# Legend:
# Test in all cases: glycan array binding signal (z-score within array); higher = stronger binding
# Details in all cases: glycan notation: IUPAC condensed, linker removed
# GlcNAc(b1-3)Gal(b1-4)Glc = biological target: GlcNAc(b1-3)Gal(b1-4)Glc
# Method in brief: (§1)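 Arrays were curated from the Consortium for Functional Glycomics database, 3228 in total, and kept only where the protein sequence was available. Binding is expressed as a within-array Z-score. This score was averaged across arrays of the same protein sequence at different concentrations or buffers and across linkers, and negative values can be read as non-binding.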
# [1] = biological target: GlcNAc(b1-3)Gal(b1-4)GlcNAc
# Method in brief: as §1
# [2] = biological target: GlcNAc(b1-3)Gal(b1-4)GlcNAc(b1-2)Man(a1-3)[GlcNAc(b1-3)Gal(b1-4)GlcNAc(b1-2)Man(a1-6)]Man(b1-4)GlcNAc(b1-4)GlcNAc
# Method in brief: as §1
# [3] = biological target: GlcNAc(b1-3)Gal(b1-4)GlcNAc(b1-2)Man(a1-3)[GlcNAc(b1-3)Gal(b1-4)GlcNAc(b1-2)Man(a1-6)]Man(b1-4)GlcNAc(b1-4)[Fuc(a1-6)]GlcNAc
# Method in brief: as §1
# [4] = biological target: GlcNAc(b1-3)Gal(b1-4)GlcNAc(b1-2)[GlcNAc(b1-3)Gal(b1-4)GlcNAc(b1-6)]Man(a1-6)[GlcNAc(b1-3)Gal(b1-4)GlcNAc(b1-2)Man(a1-3)]Man(b1-4)GlcNAc(b1-4)GlcNAc
# Method in brief: as §1
# [5] = biological target: GlcNAc(b1-3)Gal(b1-4)GlcNAc(b1-3)Gal(b1-4)GlcNAc
# Method in brief: as §1
# [6] = biological target: GlcNAc(b1-3)Gal(b1-4)GlcNAc(b1-3)Gal(b1-4)GlcNAc(b1-2)Man(a1-3)[GlcNAc(b1-3)Gal(b1-4)GlcNAc(b1-3)Gal(b1-4)GlcNAc(b1-2)Man(a1-6)]Man(b1-4)GlcNAc(b1-4)GlcNAc
# Method in brief: as §1
# [7] = biological target: GlcNAc(b1-3)Gal(b1-4)GlcNAc(b1-3)Gal(b1-4)GlcNAc(b1-2)Man(a1-3)[GlcNAc(b1-3)Gal(b1-4)GlcNAc(b1-3)Gal(b1-4)GlcNAc(b1-2)Man(a1-6)]Man(b1-4)GlcNAc(b1-4)[Fuc(a1-6)]GlcNAc
# Method in brief: as §1
# [8] = biological target: GlcNAc(b1-3)Gal(b1-4)GlcNAc(b1-3)Gal(b1-4)GlcNAc(b1-2)[GlcNAc(b1-3)Gal(b1-4)GlcNAc(b1-3)Gal(b1-4)GlcNAc(b1-6)]Man(a1-6)[GlcNAc(b1-3)Gal(b1-4)GlcNAc(b1-3)Gal(b1-4)GlcNAc(b1-2)Man(a1-3)]Man(b1-4)GlcNAc(b1-4)[Fuc(a1-6)]GlcNAc
# Method in brief: as §1
# [9] = biological target: GlcNAc(b1-3)Gal(b1-4)GlcNAc(b1-3)Gal(b1-4)GlcNAc(b1-3)Gal(b1-4)GlcNAc(b1-2)Man(a1-3)[GlcNAc(b1-3)Gal(b1-4)GlcNAc(b1-3)Gal(b1-4)GlcNAc(b1-3)Gal(b1-4)GlcNAc(b1-2)Man(a1-6)]Man(b1-4)GlcNAc(b1-4)GlcNAc
# Method in brief: as §1
# [10] = biological target: GlcNAc(b1-3)Gal(b1-4)GlcNAc(b1-3)Gal(b1-4)GlcNAc(b1-3)Gal(b1-4)GlcNAc(b1-2)Man(a1-3)[GlcNAc(b1-3)Gal(b1-4)GlcNAc(b1-3)Gal(b1-4)GlcNAc(b1-3)Gal(b1-4)GlcNAc(b1-2)Man(a1-6)]Man(b1-4)GlcNAc(b1-4)[Fuc(a1-6)]GlcNAc
# Method in brief: as §1
# [11] = biological target: GlcNAc(b1-3)Gal(b1-4)GlcNAc(b1-3)Gal(b1-4)GlcNAc(b1-3)Gal(b1-4)GlcNAc(b1-2)[GlcNAc(b1-3)Gal(b1-4)GlcNAc(b1-3)Gal(b1-4)GlcNAc(b1-3)Gal(b1-4)GlcNAc(b1-6)]Man(a1-6)[GlcNAc(b1-3)Gal(b1-4)GlcNAc(b1-3)Gal(b1-4)GlcNAc(b1-3)Gal(b1-4)GlcNAc(b1-2)Man(a1-3)]Man(b1-4)GlcNAc(b1-4)[Fuc(a1-6)]GlcNAc
# Method in brief: as §1
# [12] = biological target: GlcNAc(b1-3)Gal(b1-4)GlcNAc(b1-3)Gal(b1-4)GlcNAc(b1-3)Gal(b1-4)GlcNAc(b1-3)Gal(b1-4)GlcNAc(b1-2)Man(a1-3)[GlcNAc(b1-3)Gal(b1-4)GlcNAc(b1-3)Gal(b1-4)GlcNAc(b1-3)Gal(b1-4)GlcNAc(b1-3)Gal(b1-4)GlcNAc(b1-2)Man(a1-6)]Man(b1-4)GlcNAc(b1-4)GlcNAc
# Method in brief: as §1
# [13] = biological target: GlcNAc(b1-3)Gal(b1-4)GlcNAc(b1-3)Gal(b1-4)GlcNAc(b1-3)Gal(b1-4)GlcNAc(b1-3)Gal(b1-4)GlcNAc(b1-2)Man(a1-3)[GlcNAc(b1-3)Gal(b1-4)GlcNAc(b1-3)Gal(b1-4)GlcNAc(b1-3)Gal(b1-4)GlcNAc(b1-3)Gal(b1-4)GlcNAc(b1-2)Man(a1-6)]Man(b1-4)GlcNAc(b1-4)[Fuc(a1-6)]GlcNAc
# Method in brief: as §1
# [14] = biological target: GlcNAc(b1-3)Gal(b1-4)GlcNAc(b1-3)Gal(b1-4)GlcNAc(b1-3)Gal(b1-4)GlcNAc(b1-3)Gal(b1-4)GlcNAc(b1-2)[GlcNAc(b1-3)Gal(b1-4)GlcNAc(b1-3)Gal(b1-4)GlcNAc(b1-3)Gal(b1-4)GlcNAc(b1-3)Gal(b1-4)GlcNAc(b1-6)]Man(a1-6)[GlcNAc(b1-3)Gal(b1-4)GlcNAc(b1-3)Gal(b1-4)GlcNAc(b1-3)Gal(b1-4)GlcNAc(b1-3)Gal(b1-4)GlcNAc(b1-2)Man(a1-3)]Man(b1-4)GlcNAc(b1-4)[Fuc(a1-6)]GlcNAc
# Method in brief: as §1
# [15] = biological target: GlcNAc(b1-3)Gal(b1-4)GlcNAc(b1-3)Gal(b1-4)GlcNAc(b1-3)GalNAc
# Method in brief: as §1
# [16] = biological target: GlcNAc(b1-3)Gal(b1-4)GlcNAc(b1-3)GalNAc
# Method in brief: as §1
# [17] = biological target: GlcNAc(b1-3)Gal(b1-4)GlcNAc(b1-3)[GlcNAc(b1-3)Gal(b1-4)GlcNAc(b1-3)]GalNAc
# Method in brief: as §1
# [18] = biological target: GlcNAc(b1-3)Gal(b1-4)GlcNAc(b1-6)[Gal(b1-3)]GalNAc
# Method in brief: as §1
# [19] = biological target: GlcNAc(b1-3)Gal(b1-4)GlcNAc(b1-6)[GlcNAc(b1-3)Gal(b1-3)]GalNAc
# Method in brief: as §1
# [20] = biological target: GlcNAc(b1-3)Gal(b1-4)GlcNAc(b1-6)[GlcNAc(b1-3)]Gal(b1-4)GlcNAc
# Method in brief: as §1
# GlcNAc(b1-3)GalNAc = biological target: GlcNAc(b1-3)GalNAc
# Method in brief: as §1
# GlcNAc(b1-3)Man = biological target: GlcNAc(b1-3)Man
# Method in brief: as §1
# [21] = biological target: GlcNAc(b1-3)[GlcNAc(b1-4)][GlcNAc(b1-6)]GlcNAc
# Method in brief: as §1
# [22] = biological target: GlcNAc(b1-3)[GlcNAc(b1-6)]Gal(b1-4)GlcNAc
# Method in brief: as §1
# [23] = biological target: GlcNAc(b1-3)[GlcNAc(b1-6)]GalNAc
# Method in brief: as §1
# [24] = biological target: GlcNAc(b1-4)Gal(b1-4)GlcNAc
# Method in brief: as §1
# GlcNAc(b1-4)GlcNAc = biological target: GlcNAc(b1-4)GlcNAc
# Method in brief: as §1
# [25] = biological target: GlcNAc(b1-4)GlcNAc(b1-4)GlcNAc
# Method in brief: as §1
# [26] = biological target: GlcNAc(b1-4)GlcNAc(b1-4)GlcNAc(b1-4)GlcNAc(b1-4)GlcNAc
# Method in brief: as §1
# [27] = biological target: GlcNAc(b1-4)GlcNAc(b1-4)GlcNAc(b1-4)GlcNAc(b1-4)GlcNAc(b1-4)GlcNAc
# Method in brief: as §1
# [28] = biological target: GlcNAc(b1-4)[GlcNAc(b1-6)]GalNAc
# Method in brief: as §1
# [29] = biological target: GlcNAc(b1-6)Gal(b1-4)GlcNAc
# Method in brief: as §1
# GlcNAc(b1-6)GalNAc = biological target: GlcNAc(b1-6)GalNAc
# Method in brief: as §1
# [30] = biological target: GlcNAc6S(b1-3)Gal(b1-4)GlcNAc
# Method in brief: as §1
# Kdn(a2-3)Gal(b1-3)GalNAc = biological target: Kdn(a2-3)Gal(b1-3)GalNAc
# Method in brief: as §1
# Kdn(a2-3)Gal(b1-3)GlcNAc = biological target: Kdn(a2-3)Gal(b1-3)GlcNAc
# Method in brief: as §1
binder,measurement,setting,value
"Protein L(B1-B4) (Finegoldia magna), Q51912 (protein) KEETPETPETDSEEEVTIKANLIFANGSTQTAEFKGTFEKATSEAYAYADTLKKDNGEYTVDVADKGYTLNIKFAGKEKTPEEPKEEVTIKANLIYADGKTQTAEFKGTFEEATAEAYRYADALKKDNGEYTVDVADKGYTLNIKFAGKEKTPEEPKEEVTIKANLIYADGKTQTAEFKGTFEEATAEAYRYADLLAKENGKYTVDVADKGYTLNIKFAGKEKTPEEPKEEVTIKANLIYADGKTQTAEFKGTFAEATAEAYRYADLLAKENGKYTADLEDGGYTINIRFAG",glycan array binding signal (z-score),GlcNAc(b1-3)Gal(b1-4)Glc,-0.917
same,glycan array binding signal (z-score),[1],-0.794
same,glycan array binding signal (z-score),[2],1.03
same,glycan array binding signal (z-score),[3],1.23
same,glycan array binding signal (z-score),[4],0.951
same,glycan array binding signal (z-score),[5],-0.441
same,glycan array binding signal (z-score),[6],1.42
same,glycan array binding signal (z-score),[7],3.07
same,glycan array binding signal (z-score),[8],1.35
same,glycan array binding signal (z-score),[9],1.06
same,glycan array binding signal (z-score),[10],1.7
same,glycan array binding signal (z-score),[11],1.29
same,glycan array binding signal (z-score),[12],0.719
same,glycan array binding signal (z-score),[13],0.178
same,glycan array binding signal (z-score),[14],1.06
same,glycan array binding signal (z-score),[15],-0.791
same,glycan array binding signal (z-score),[16],-0.554
same,glycan array binding signal (z-score),[17],0.344
same,glycan array binding signal (z-score),[18],-0.704
same,glycan array binding signal (z-score),[19],-0.452
same,glycan array binding signal (z-score),[20],-0.81
same,glycan array binding signal (z-score),GlcNAc(b1-3)GalNAc,-0.218
same,glycan array binding signal (z-score),GlcNAc(b1-3)Man,0.083
same,glycan array binding signal (z-score),[21],-0.694
same,glycan array binding signal (z-score),[22],-0.571
same,glycan array binding signal (z-score),[23],-0.606
same,glycan array binding signal (z-score),[24],-1.08
same,glycan array binding signal (z-score),GlcNAc(b1-4)GlcNAc,-0.501
same,glycan array binding signal (z-score),[25],-0.615
same,glycan array binding signal (z-score),[26],-0.747
same,glycan array binding signal (z-score),[27],-0.953
same,glycan array binding signal (z-score),[28],-0.71
same,glycan array binding signal (z-score),[29],-0.897
same,glycan array binding signal (z-score),GlcNAc(b1-6)GalNAc,-0.557
same,glycan array binding signal (z-score),[30],-0.336
same,glycan array binding signal (z-score),Kdn(a2-3)Gal(b1-3)GalNAc,2.17
same,glycan array binding signal (z-score),Kdn(a2-3)Gal(b1-3)GlcNAc,0.708

# A run of entries of the results above, for reference:
binder,measurement,setting,value
"Protein L(B1-B4) (Finegoldia magna), Q51912 (protein) KEETPETPETDSEEEVTIKANLIFANGSTQTAEFKGTFEKATSEAYAYADTLKKDNGEYTVDVADKGYTLNIKFAGKEKTPEEPKEEVTIKANLIYADGKTQTAEFKGTFEEATAEAYRYADALKKDNGEYTVDVADKGYTLNIKFAGKEKTPEEPKEEVTIKANLIYADGKTQTAEFKGTFEEATAEAYRYADLLAKENGKYTVDVADKGYTLNIKFAGKEKTPEEPKEEVTIKANLIYADGKTQTAEFKGTFAEATAEAYRYADLLAKENGKYTADLEDGGYTINIRFAG",glycan array binding signal (z-score),[20],-0.81
same,glycan array binding signal (z-score),GlcNAc(b1-3)GalNAc,-0.218
